No constants are given. Whether binding was seen depends on the method and setting. Binding seen in cells or lysates may run through a third protein. Some results given as binding are weak or reduced against the parent protein; the word gives no strength. Where a sequence is shown, tags or fusion partners need not be part of it.
B1: GNAT1 C-terminally fused to a split-YFP domain (enzyme, UniProt Q9C666 38-197)
chain: AMQRKPPSYSISDEDLESRGFLLRRTTEGLNLDQLNSVFAAVGFPRRDTAKIEVALQHTDALLWVEYEKTRRPVAFARATGDGVFNAIIWDVVVDPSFQSCGLGKAVMERLIEDLQVKGICNIALYSEPRVLGFYRPLGFVSDPDGIKGMVFIRKQRNKK
B2: GNAT3 C-terminally fused to a split-YFP domain (enzyme, UniProt Q940H2 94-237)
chain: SVFCKPQHVDVDDAVLYSEEESLSSSLYTSEFGRQNKDDSFLGDLFQNAVPLTPSNGQLVGFGRAYSDYGLTASIHDLMVLPSLQRMGIGKLIVNRIVRLLTSRDIYDIAALCFEDERPFFKACGFGDDRMGSTTMMFTKSLEA

Amino acid sequences for entries named in this document (tags omitted). Residues count along the entry.
UniProt Q7X9V3, residues 59-258: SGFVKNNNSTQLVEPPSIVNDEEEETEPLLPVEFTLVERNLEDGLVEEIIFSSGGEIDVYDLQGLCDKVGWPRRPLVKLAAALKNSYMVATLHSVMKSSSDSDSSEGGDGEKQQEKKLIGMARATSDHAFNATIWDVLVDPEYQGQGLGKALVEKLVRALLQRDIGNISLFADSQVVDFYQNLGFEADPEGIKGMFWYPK

Key:
[1] = biological target: GNAT2 C-terminally fused to a split-YFP domain (Arabidopsis thaliana) (UniProt Q7X9V3); test: split reporter; BiFC in transiently transformed Arabidopsis Col-0 protoplasts; GNATs C-terminally fused to the N- or C-terminal domain of split-YFP; YFP read by confocal laser scanning microscopy after 8 to 24 h
[2] = biological target: T1, GNAT3 C-terminally fused to a split-YFP domain (Arabidopsis thaliana) (UniProt Q940H2); test: as above
T1 sequence: B2 chain

| binding [1] | binding [2] | Binder |
| --- | --- | --- |
| binds | no binding | B1 |
| binds | – | B2 |

From publication PMC11585782, “The Plastidial Protein Acetyltransferase GNAT1 Forms a Complex With GNAT2, yet Their Interaction Is Dispensable for State Transitions” (Molecular & Cellular Proteomics : MCP, 2024)
